Test results reported in paper PMC11481892.
These are yes or no findings as the source states them, for the method shown. In cells and extracts the contact can be indirect. A yes stands for co-enrichment or nearness to the bait. Other partners may have been found.

Protein sequences, listed by entry. Tags and fused reporters are not part of them. Lines headed by an entry give the natural chain unless they say otherwise; changes in a name come on top.
UniProt O97292: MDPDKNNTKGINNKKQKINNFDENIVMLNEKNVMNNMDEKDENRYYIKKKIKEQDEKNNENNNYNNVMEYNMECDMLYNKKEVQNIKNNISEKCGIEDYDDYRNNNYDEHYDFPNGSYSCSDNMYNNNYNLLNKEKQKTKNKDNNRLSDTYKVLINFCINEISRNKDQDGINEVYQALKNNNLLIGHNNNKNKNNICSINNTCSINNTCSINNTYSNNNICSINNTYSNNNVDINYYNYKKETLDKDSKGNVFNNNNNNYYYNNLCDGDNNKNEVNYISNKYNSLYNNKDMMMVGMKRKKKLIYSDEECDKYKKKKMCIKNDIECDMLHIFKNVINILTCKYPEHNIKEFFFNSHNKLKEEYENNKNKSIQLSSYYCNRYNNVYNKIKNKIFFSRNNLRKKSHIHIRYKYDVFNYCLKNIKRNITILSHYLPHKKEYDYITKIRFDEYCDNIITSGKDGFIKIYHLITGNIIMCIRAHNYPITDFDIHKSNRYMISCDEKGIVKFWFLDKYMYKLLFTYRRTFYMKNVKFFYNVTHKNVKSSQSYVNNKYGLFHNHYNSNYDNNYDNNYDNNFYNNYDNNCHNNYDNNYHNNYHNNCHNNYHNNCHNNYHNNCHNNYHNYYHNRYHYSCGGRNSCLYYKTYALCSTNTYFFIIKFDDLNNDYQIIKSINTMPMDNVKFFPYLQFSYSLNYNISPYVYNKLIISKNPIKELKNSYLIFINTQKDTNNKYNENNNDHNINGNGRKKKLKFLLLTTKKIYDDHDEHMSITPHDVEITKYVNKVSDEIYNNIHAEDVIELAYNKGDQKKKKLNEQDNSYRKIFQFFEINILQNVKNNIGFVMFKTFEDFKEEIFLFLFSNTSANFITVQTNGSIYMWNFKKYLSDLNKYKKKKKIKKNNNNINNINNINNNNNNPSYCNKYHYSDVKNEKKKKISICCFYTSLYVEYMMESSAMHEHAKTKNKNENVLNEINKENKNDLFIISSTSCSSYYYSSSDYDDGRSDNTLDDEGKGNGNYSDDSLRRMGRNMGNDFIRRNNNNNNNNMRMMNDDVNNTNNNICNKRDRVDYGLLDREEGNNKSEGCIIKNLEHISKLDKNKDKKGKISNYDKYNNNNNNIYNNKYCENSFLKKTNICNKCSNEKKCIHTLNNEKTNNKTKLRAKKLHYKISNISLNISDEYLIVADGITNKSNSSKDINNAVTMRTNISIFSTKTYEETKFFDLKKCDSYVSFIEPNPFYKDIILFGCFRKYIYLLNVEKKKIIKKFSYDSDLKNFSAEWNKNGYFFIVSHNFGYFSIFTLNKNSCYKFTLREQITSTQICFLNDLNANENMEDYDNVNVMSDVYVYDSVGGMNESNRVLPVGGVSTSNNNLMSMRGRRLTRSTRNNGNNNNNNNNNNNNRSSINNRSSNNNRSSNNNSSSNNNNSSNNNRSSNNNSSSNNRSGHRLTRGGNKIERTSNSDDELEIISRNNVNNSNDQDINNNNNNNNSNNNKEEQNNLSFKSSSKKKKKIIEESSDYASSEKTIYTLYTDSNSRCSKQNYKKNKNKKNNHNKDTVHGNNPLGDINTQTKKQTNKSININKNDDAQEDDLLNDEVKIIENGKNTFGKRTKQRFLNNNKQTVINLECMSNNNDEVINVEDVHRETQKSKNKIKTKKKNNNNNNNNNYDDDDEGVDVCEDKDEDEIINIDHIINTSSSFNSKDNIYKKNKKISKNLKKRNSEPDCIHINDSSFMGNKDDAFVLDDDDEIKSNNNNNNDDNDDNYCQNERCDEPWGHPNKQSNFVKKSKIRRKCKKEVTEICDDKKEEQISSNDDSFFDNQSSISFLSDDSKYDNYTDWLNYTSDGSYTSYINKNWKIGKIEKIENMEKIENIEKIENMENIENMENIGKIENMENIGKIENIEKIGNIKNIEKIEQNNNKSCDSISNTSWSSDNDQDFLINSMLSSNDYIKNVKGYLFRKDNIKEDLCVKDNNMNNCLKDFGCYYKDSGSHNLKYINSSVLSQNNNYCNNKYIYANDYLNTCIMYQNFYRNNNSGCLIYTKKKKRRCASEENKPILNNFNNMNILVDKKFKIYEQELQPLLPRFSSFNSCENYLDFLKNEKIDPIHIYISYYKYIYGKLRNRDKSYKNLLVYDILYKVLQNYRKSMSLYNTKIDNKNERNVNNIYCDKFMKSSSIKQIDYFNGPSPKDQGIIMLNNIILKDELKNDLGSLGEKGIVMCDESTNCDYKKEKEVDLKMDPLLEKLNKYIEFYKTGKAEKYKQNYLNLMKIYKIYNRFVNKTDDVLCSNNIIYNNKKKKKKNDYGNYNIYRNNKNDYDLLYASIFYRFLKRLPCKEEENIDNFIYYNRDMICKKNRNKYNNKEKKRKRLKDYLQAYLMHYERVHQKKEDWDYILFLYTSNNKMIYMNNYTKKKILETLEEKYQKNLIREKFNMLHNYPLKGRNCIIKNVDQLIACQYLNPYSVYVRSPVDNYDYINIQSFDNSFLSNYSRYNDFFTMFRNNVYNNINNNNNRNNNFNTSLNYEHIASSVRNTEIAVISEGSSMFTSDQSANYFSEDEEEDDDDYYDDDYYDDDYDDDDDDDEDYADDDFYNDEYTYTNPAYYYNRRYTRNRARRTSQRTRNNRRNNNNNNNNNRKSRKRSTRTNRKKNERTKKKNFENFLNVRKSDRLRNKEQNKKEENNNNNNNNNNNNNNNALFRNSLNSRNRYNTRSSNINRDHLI
UniProt A0A509AI98: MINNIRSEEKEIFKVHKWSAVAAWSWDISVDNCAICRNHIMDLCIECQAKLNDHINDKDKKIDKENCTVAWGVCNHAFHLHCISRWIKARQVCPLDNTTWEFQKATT
UniProt A0A509AZB5: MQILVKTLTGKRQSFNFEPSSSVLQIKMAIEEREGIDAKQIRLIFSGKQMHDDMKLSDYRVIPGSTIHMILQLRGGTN
UniProt Q8IBJ1: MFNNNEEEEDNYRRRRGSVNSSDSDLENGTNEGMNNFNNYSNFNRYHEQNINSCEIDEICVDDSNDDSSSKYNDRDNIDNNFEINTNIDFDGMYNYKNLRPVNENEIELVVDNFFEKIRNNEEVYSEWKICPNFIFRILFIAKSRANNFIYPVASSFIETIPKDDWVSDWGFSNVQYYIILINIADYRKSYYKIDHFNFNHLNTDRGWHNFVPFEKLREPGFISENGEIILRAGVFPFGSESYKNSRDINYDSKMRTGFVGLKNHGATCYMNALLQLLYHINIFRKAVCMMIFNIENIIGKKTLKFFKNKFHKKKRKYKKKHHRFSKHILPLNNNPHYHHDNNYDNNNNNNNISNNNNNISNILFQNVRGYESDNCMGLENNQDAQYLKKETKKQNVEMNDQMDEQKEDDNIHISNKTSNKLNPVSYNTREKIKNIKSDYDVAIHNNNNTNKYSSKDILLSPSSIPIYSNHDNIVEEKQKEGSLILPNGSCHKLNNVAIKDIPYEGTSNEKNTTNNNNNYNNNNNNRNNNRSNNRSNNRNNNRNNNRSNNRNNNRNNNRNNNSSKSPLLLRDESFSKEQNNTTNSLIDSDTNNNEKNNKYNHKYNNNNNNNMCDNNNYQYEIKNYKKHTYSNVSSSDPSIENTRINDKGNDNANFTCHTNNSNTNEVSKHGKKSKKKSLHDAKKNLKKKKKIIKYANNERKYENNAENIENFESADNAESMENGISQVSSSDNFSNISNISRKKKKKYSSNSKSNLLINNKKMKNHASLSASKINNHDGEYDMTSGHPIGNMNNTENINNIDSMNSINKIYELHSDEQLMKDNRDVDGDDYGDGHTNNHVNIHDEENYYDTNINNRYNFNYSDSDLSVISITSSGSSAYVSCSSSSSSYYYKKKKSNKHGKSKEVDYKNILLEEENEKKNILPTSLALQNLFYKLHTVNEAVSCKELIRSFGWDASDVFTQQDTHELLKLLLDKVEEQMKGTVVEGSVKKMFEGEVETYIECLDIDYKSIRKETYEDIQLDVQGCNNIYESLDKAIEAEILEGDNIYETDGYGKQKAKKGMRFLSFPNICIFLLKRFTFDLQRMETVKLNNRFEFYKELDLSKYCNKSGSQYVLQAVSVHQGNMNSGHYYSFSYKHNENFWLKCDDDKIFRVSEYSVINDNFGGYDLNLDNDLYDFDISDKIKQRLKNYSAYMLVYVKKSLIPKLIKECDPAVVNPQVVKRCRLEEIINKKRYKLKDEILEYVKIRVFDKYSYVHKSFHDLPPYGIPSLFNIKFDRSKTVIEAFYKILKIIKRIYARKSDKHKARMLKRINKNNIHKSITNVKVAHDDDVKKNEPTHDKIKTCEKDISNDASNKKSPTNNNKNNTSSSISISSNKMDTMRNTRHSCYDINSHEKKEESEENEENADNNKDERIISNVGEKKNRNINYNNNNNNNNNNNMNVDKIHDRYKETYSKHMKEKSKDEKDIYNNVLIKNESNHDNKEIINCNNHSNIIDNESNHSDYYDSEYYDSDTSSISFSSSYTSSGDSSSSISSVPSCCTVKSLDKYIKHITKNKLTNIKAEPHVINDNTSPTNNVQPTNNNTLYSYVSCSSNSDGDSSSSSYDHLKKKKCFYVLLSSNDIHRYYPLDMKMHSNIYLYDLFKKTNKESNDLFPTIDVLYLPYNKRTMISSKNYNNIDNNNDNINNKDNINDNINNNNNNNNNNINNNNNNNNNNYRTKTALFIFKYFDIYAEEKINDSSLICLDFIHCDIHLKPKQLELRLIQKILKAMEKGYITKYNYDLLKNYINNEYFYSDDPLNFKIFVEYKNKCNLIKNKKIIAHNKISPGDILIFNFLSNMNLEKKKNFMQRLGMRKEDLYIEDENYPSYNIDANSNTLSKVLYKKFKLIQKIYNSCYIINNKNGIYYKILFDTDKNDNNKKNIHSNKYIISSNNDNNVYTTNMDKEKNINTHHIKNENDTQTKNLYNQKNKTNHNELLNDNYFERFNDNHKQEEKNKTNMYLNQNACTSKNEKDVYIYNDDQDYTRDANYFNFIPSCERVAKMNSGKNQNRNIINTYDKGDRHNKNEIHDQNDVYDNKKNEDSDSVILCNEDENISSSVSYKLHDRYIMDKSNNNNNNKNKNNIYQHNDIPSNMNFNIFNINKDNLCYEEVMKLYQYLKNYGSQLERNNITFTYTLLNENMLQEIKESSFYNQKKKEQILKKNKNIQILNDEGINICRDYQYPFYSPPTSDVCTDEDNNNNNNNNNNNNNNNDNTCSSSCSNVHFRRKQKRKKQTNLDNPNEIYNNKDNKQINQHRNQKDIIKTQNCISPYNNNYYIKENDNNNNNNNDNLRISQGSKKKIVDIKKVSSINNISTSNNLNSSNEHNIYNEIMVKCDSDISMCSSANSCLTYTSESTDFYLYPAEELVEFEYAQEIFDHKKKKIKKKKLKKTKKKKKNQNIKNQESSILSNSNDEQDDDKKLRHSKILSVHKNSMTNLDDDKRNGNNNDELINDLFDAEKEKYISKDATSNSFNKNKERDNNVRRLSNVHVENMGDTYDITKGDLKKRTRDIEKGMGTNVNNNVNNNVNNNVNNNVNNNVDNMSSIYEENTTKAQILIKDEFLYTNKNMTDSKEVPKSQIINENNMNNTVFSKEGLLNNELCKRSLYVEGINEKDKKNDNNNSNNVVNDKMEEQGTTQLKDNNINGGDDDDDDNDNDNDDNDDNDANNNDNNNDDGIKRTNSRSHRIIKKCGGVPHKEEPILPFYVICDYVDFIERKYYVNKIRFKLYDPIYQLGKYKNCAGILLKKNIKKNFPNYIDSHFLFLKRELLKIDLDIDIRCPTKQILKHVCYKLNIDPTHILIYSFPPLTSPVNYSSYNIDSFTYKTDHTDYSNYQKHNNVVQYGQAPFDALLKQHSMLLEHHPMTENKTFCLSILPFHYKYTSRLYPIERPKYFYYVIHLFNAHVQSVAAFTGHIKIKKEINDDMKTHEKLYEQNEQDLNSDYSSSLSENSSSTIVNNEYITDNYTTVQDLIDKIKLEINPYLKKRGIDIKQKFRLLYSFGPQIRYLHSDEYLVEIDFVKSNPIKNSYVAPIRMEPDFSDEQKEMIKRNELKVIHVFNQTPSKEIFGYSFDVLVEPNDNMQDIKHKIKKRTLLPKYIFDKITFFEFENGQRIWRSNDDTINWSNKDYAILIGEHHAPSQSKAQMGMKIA

Experiments:
[1] = target: HA-tagged PfCUL4 (Cullin-4, PF3D7_0629800) (P. falciparum) (UniProt C6KTD3); experiment: affinity purification with mass spectrometry; PfCUL4-HA captured on magnetic anti-HA resin from lysate of synchronized P. falciparum schizonts (50 mM HEPES pH 7.5, 150 mM NaCl, 1% Triton X-100), 2 h at 4°C, eluted with HA peptide, LC-MS/MS; WT untransfected line as control; n = 3
[2] = target: triple HA-tagged PbCUL4 (PBANKA_1128600) (P. berghei); experiment: affinity purification with mass spectrometry; HA-tagged bait captured on anti-HA magnetic beads from P. berghei gametocytes 4 min after activation, fixed 10 min with 1% formaldehyde, lysed in RIPA buffer; label-free semiquantitative LC-MS/MS; compared with FBXO1-HA immunoprecipitations (earlier work) as control; n = 2
[3] = target: HA-tagged PbWIG1 (PBANKA_1216700) (P. berghei); experiment: as above
[4] = target: HA-tagged PbDDB1 (PBANKA_0807500) (P. berghei); experiment: as above

Substance: karyopherin β (PF3D7_0524000) (from UniProt Q8I3M5)
- binding [1]: binds

Substance: WD domain protein PF3D7_1410300 (from UniProt Q8ILZ2)
- binding [1]: binds

Substance: ubiquitin carboxyl-terminal hydrolase (PbUCH7; PBANKA_0210600) (from UniProt A0A509AEF7) (enzyme)
- binding [2]: binds

Substance: WD-repeat protein important for gametogenesis 1 (WIG1; PF3D7_0321800) (from UniProt O97292)
- binding [1]: binds

Substance: RBX1 (PBANKA_0806200) (from UniProt A0A509AI98)
- binding [3]: binds

Substance: WD-repeat protein important for gametogenesis 1 (WIG1; PBANKA_1216700) (from UniProt A0A509AQC3)
- binding [2]: binds
- binding [4]: binds

Substance: DDB1 (PBANKA_0807500) (from UniProt A0A509AK91)
- binding [3]: binds

Substance: Nedd8 (PBANKA_1411400) (from UniProt A0A509AZB5)
- binding [2]: binds
- binding [3]: binds

Substance: ubiquitin carboxyl-terminal hydrolase (PfUCH7; PF3D7_0726500) (from UniProt Q8IBJ1) (enzyme)
- binding [1]: binds
